Test: Odour description

Structure (SMILES)	Odour description
CCC(C)=C(C#N)c1ccccc1 (racemic) [Example 3, 3-Methyl-2-phenyl-pent-2-ene nitrile]	sweet, floral, green honey, salicylate, orange blossom
CCCCCC=C(C#N)c1ccccc1 (stereo in doubt) [Example 2, (2E)-2-Phenyl-oct-2-ene nitrile]	fresh, green, jasmine, salicylate
CC(C)=C(C#N)c1ccccc1 [Example 1, 3-Methyl-2-phenyl-but-2-ene nitrile]	floral, Rosacetol, fresh, citrus, dry hay, tobacco
CC(C)=C(C#N)c1ccc(C)cc1 [Example 4, 3-Methyl-2-p-tolyl-but-2-ene nitrile]	citrus, rosy, fruity, minty
CC(C)=CCCC(C)=C(C#N)c1ccccc1 [Example 5, 3,7-Dimethyl-2-phenyl-octa-2,6-diene nitrile]	floral, honey, cinnamon, sweet
CC(C)=C/C=C(/C#N)c1ccccc1 [Example 6, (2E)-5-Methyl-2-phenyl-hexa-2,4-diene nitrile]	powdery, cinnamone, benzaldehyde
COc1ccccc1C(C#N)=C(C)C [Example 7, 2-(2-Methoxy-phenyl)-3-methyl-but-2-ene nitrile]	citrus, hyacinthe, coumarin
COc1ccc(C(C#N)=C(C)C)cc1 [Example 8, 2-(4-methoxy-phenyl)-3-methyl-but-2-ene nitrile]	floral, anis, sweet
CCC(CC)=C(C#N)c1ccccc1 [Example 9, 3-ethyl-2-phenyl-pent-2-ene nitrile]	green, floral, rosy

Source: patent US9102899B2, “Organic compounds” (Givaudan SA, priority 2004, dated 2015)
